These results are taken from US11873267B2, “Functionalized N,N-dialkylamino phenyl ethers and their method of use” (Temple University-Of The Commonwealth System of Higher …, priority 2016, dated 2024).

Assay [1] relates to Wild-type patient fibroblasts (Coriell Institute, GM 005659). Put plainly: cells. The conditions noted are these: Homo sapiens, Fibroblast, 72 h, read-out: EC50, GPN-induced response on wild type cells. How it is done: Gaucher patient fibroblasts (Coreill Institute, GM08760) were cultured in EMEM with 15% FBS, 1% Pen/Strep at 37° C./5% CO2. Wild-type patient fibroblasts (Coriell Institute, GM 005659) were used as a control cell line. Cells are plated with a MultiFlo dispenser (800 cells/well in 30 μL of complete growth media) in black/clear bottom 384-well plates and cultured for 24 hours at 37° C., 5% CO2. Compounds of the disclosure are then added to the cells (12 point dose response curve, 150 nM to 30 uM final compound concentration using a 5.0 μL of a 7× stock solution (1.05 μM to 210 μM)) under sterile conditions and continued in culture for 72 hours at 37° C., 5% CO2. […] The data from each well were normalized with basal fluorescence by dividing the maximum fluorescence over the entire real time reading by the initial basal fluorescence.
Cells (800 cells/well) were plated with a MultiFlo dispenser (BioTek) and cultured for 24 h at 37° C., 5% CO2. […] Cells were loaded with Screen Quest™ Fluo-8 No Wash Calcium mix (ATT Bio) and analyzed for changes in response to GPN. The data from each well were normalized with basal fluorescence by dividing the maximum fluorescence over the entire real time reading by the initial basal fluorescence. […] EC50 and Hill slope values are determined using a four-parameter dose-response (variable slope) equation in GraphPad Prism.

Assay [2] deals with Gaucher patient fibroblasts (Coreill Institute, GM08760). Nature of the assay: GPN induced calcium release phenotypic assay on Gaucher patient fibroblasts. Format: cell-based. The conditions noted are these: Homo sapiens, Fibroblast; Gaucher patient cells, 72 hours compound treatment, 50 μM GPN.
In assay [3] the test system is β-Glucocerebrosidase (GCase). Nature of the assay: β-Glucocerebrosidase (GCase) activity in lysates of compound-treated Gaucher patient fibroblasts (4-MUG substrate). Format: cell-based, human. The following applies: 10 μM, 3 days, Gaucher patient fibroblast lysates, no change = 1. As to the method: β-Glucocerebrosidase Activity Enhanced in Gaucher Patient Cells after Tamoxifen and synthesized analog treatment: Gaucher patient fibroblasts were cultured for 3 days in 10 μM final concentration tamoxifen, MC210155 or MC150235. Cellular lysates were prepared from compound treated cells and non-treated cells were included as a control. β-Glucocerebrosidase (GCase) activity was directly measured from lysates prepared from treated cells using a fluorescent substrate 4-methylumbelliferyl-β-D-glucopyranoside (MUG). Cells were washed 3× with phosphate-buffered saline (PBS) and detached by scraping. After centrifugation, The pellets were frozen on dry ice, thawed and lysed in McIlvaine (MI) buffer (100 mM sodium citrate, 200 mM sodium phosphate dibasic, 0.25% sodium taurocholate, and 0.1% Triton X-100, pH 5.2 containing protease inhibitors). […] Fluorescence was measured on a Clariostar plate reader (BMG Labtech) for one second per well using 355 nm excitation and 460 nm emission. Total protein was determined with the Bradford protein assay kit (BioRad) according to the manufacturer's instructions. The GCase activity measured after compound treatment is normalized to non-treated cells and expressed as relative activity where no change in GCAse activity is equal 1 (FIG. 3).

As to `CC/C(=C(\c1ccccc1)c1ccc(OCCN(C)C)cc1)c1ccccc1` [Tamoxifen, reference compound], the EC50 in assay [1] is 4 ± 0.38 µM; in assay [2], 8.8 ± 0.18 µM. In addition, the “GCase activity relative to non-treated cells” value in assay [3] is reported as “increase in GCase activity”.
